Assay results as given in publication PMC9319246.
Results are given in words; binding and its absence hold for the method and conditions named. Binding seen in cells or lysates may run through a third protein. Here binding means that the protein was enriched with, or labelled near, the bait; the list need not be complete. Sequences can lack the tags named with a protein. Blank lines part the entries; values can stand above or below the molecule they belong to.

Amino acid sequences for entries named in this document (tags omitted).
UniProt Q5TZA2: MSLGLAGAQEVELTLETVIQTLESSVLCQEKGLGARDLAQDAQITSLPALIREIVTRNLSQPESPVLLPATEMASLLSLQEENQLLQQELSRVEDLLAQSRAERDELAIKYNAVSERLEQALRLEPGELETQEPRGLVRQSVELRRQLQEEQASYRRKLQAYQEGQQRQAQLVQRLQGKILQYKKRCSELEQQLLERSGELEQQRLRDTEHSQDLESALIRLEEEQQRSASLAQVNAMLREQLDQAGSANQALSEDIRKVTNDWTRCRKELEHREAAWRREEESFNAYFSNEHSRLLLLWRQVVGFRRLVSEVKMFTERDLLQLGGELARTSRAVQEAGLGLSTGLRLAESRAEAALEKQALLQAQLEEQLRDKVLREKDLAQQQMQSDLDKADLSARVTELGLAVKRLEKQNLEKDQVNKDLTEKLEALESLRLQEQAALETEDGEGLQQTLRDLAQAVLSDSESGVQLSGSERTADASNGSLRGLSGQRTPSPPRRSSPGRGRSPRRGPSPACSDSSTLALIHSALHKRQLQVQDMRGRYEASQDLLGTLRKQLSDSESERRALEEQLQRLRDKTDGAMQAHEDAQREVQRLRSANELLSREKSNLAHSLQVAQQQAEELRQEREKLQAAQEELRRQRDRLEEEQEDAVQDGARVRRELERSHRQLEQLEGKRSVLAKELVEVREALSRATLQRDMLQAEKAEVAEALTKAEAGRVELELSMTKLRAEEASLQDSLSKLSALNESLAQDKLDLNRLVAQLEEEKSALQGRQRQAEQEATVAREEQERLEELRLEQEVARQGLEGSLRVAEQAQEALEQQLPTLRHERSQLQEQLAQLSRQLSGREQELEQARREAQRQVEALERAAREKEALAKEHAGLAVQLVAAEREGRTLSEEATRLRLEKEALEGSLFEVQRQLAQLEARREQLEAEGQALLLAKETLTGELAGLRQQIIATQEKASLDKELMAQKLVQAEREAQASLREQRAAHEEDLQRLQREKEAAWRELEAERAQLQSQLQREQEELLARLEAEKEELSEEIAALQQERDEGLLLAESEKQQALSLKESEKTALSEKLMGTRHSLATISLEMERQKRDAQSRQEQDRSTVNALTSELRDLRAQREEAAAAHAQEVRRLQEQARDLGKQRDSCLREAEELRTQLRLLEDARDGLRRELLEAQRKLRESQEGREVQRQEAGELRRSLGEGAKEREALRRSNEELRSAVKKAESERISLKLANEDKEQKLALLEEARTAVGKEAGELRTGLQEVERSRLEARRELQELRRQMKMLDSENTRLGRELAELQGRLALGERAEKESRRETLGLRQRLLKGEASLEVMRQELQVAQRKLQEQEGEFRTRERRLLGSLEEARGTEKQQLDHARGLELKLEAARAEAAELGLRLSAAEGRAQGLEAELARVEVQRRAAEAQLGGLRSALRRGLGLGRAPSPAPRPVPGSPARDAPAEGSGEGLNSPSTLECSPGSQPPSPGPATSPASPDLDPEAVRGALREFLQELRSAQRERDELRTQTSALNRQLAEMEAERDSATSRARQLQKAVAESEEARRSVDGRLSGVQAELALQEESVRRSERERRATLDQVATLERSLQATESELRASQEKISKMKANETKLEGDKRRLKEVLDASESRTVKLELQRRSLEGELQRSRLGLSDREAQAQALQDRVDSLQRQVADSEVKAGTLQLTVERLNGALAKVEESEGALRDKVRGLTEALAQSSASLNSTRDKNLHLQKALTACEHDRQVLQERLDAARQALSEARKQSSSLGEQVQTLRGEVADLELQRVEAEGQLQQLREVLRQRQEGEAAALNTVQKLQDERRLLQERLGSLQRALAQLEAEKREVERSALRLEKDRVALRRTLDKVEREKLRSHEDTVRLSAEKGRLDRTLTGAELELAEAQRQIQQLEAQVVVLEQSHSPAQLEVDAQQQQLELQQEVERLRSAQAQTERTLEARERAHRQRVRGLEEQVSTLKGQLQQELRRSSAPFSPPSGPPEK

How the values were obtained:
[1] = molecular target: T1, endogenously FLAG-tagged TTC30B (human (endogenous in HEK293T)) (UniProt Q8N4P2); assay: affinity purification with mass spectrometry; anti-Flag-M2-agarose beads on lysates of endogenously FLAG-tagged TTC30A or TTC30B HEK293T cells, serum starved for 16 h; elution with Flag-peptide; label-free LC-MS/MS; six biological replicates against an untagged Cas9 empty-vector control clone
T1 sequence: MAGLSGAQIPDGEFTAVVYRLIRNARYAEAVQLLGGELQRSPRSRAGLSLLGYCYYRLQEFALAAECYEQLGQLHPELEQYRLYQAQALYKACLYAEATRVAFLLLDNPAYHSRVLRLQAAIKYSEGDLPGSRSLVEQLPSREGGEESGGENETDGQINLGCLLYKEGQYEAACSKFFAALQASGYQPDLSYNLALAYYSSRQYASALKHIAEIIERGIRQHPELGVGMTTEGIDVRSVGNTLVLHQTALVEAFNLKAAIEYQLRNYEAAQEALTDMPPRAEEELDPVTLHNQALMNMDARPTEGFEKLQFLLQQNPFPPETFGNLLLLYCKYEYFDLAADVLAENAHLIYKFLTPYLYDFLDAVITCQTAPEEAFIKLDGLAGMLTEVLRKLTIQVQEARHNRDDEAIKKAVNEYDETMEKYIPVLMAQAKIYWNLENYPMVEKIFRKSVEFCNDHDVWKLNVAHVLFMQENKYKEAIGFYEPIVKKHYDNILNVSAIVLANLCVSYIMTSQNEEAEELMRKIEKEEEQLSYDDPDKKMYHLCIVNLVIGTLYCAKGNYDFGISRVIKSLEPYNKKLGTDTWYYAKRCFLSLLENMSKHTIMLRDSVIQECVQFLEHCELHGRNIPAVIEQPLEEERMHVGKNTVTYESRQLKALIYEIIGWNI

[2] = molecular target: T2, endogenously FLAG-tagged TTC30A (human (endogenous in HEK293T)) (UniProt Q86WT1); assay: as above
T2 sequence: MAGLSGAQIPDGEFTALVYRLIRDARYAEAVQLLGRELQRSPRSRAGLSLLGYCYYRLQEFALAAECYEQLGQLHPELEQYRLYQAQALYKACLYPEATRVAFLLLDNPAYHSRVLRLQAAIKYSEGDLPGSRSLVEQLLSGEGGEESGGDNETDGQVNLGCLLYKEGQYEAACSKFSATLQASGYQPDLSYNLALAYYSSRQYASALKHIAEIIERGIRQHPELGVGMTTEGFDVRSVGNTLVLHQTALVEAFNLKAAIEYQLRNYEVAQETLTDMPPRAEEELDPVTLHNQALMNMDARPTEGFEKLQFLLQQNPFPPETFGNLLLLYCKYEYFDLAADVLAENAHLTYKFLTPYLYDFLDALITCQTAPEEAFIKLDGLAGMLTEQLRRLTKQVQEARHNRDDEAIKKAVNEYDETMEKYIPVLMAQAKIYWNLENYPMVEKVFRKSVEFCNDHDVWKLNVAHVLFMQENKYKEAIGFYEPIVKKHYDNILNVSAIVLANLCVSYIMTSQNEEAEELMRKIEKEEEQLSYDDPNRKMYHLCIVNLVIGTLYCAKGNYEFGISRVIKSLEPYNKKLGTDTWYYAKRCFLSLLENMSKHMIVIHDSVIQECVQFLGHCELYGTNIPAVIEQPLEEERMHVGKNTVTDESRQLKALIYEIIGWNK

Molecule: CROCC/rootletin (from UniProt Q5TZA2 1-2017)
binding [1]: binds

B1: CARS (protein, UniProt P49589 1-748)
chain: MADSSGQQGKGRRVQPQWSPPAGTQPCRLHLYNSLTRNKEVFIPQDGKKVTWYCCGPTVYDASHMGHARSYISFDILRRVLKDYFKFDVFYCMNITDIDDKIIKRARQNHLFEQYREKRPEAAQLLEDVQAALKPFSVKLNETTDPDKKQMLERIQHAVQLATEPLEKAVQSRLTGEEVNSCVEVLLEEAKDLLSDWLDSTLGCDVTDNSIFSKLPKFWEGDFHRDMEALNVLPPDVLTRVSEYVPEIVNFVQKIVDNGYGYVSNGSVYFDTAKFASSEKHSYGKLVPEAVGDQKALQEGEGDLSISADRLSEKRSPNDFALWKASKPGEPSWPCPWGKGRPGWHIECSAMAGTLLGASMDIHGGGFDLRFPHHDNELAQSEAYFENDCWVRYFLHTGHLTIAGCKMSKSLKNFITIKDALKKHSARQLRLAFLMHSWKDTLDYSSNTMESALQYEKFLNEFFLNVKDILRAPVDITGQFEKWGEEEAELNKNFYDKKTAIHKALCDNVDTRTVMEEMRALVSQCNLYMAARKAVRKRPNQALLENIALYLTHMLKIFGAVEEDSSLGFPVGGPGTSLSLEATVMPYLQVLSEFREGVRKIAREQKVPEILQLSDALRDNILPELGVRFEDHEGLPTVVKLVDRNTLLKEREEKRRVEEEKRKKKEEAARRKQEQEAAKLAKMKIPPSEMFLSETDKYSKFDENGLPTHDMEGKELSKGQAKKLKKLFEAQEKLYKEYLQMAQNGSFQ
binding [2]: binds

B2: CWC27 (protein, UniProt Q6UX04 1-472)
chain: MSNIYIQEPPTNGKVLLKTTAGDIDIELWSKEAPKACRNFIQLCLEAYYDNTIFHRVVPGFIVQGGDPTGTGSGGESIYGAPFKDEFHSRLRFNRRGLVAMANAGSHDNGSQFFFTLGRADELNNKHTIFGKVTGDTVYNMLRLSEVDIDDDERPHNPHKIKSCEVLFNPFDDIIPREIKRLKKEKPEEEVKKLKPKGTKNFSLLSFGEEAEEEEEEVNRVSQSMKGKSKSSHDLLKDDPHLSSVPVVESEKGDAPDLVDDGEDESAEHDEYIDGDEKNLMRERIAKKLKKDTSANVKSAGEGEVEKKSVSRSEELRKEARQLKRELLAAKQKKVENAAKQAEKRSEEEEAPPDGAVAEYRREKQKYEALRKQQSKKGTSREDQTLALLNQFKSKLTQAIAETPENDIPETEVEDDEGWMSHVLQFEDKSRKVKDASMQDSDTFEIYDPRNPVNKRRREESKKLMREKKERR
binding [2]: binds

The remaining lines, values ahead:

binding [2]: binds
B3: DHX34 (protein, UniProt Q14147 1-1143)
chain: MPPPRTREGRDRRDHHRAPSEEEALEKWDWNCPETRRLLEDAFFREEDYIRQGSEECQKFWTFFERLQRFQNLKTSRKEEKDPGQPKHSIPALADLPRTYDPRYRINLSVLGPATRGSQGLGRHLPAERVAEFRRALLHYLDFGQKQAFGRLAKLQRERAALPIAQYGNRILQTLKEHQVVVVAGDTGCGKSTQVPQYLLAAGFSHVACTQPRRIACISLAKRVGFESLSQYGSQVGYQIRFESTRSAATKIVFLTVGLLLRQIQREPSLPQYEVLIVDEVHERHLHNDFLLGVLQRLLPTRPDLKVILMSATINISLFSSYFSNAPVVQVPGRLFPITVVYQPQEAEPTTSKSEKLDPRPFLRVLESIDHKYPPEERGDLLVFLSGMAEISAVLEAAQTYASHTQRWVVLPLHSALSVADQDKVFDVAPPGVRKCILSTNIAETSVTIDGIRFVVDSGKVKEMSYDPQAKLQRLQEFWISQASAEQRKGRAGRTGPGVCFRLYAESDYDAFAPYPVPEIRRVALDSLVLQMKSMSVGDPRTFPFIEPPPPASLETAILYLRDQGALDSSEALTPIGSLLAQLPVDVVIGKMLILGSMFSLVEPVLTIAAALSVQSPFTRSAQSSPECAAARRPLESDQGDPFTLFNVFNAWVQVKSERSRNSRKWCRRRGIEEHRLYEMANLRRQFKELLEDHGLLAGAQAAQVGDSYSRLQQRRERRALHQLKRQHEEGAGRRRKVLRLQEEQDGGSSDEDRAGPAPPGASDGVDIQDVKFKLRHDLAQLQAAASSAQDLSREQLALLKLVLGRGLYPQLAVPDAFNSSRKDSDQIFHTQAKQGAVLHPTCVFAGSPEVLHAQELEASNCDGSRDDKDKMSSKHQLLSFVSLLETNKPYLVNCVRIPALQSLLLFSRSLDTNGDCSRLVADGWLELQLADSESAIRLLAASLRLRARWESALDRQLAHQAQQQLEEEEEDTPVSPKEVATLSKELLQFTASKIPYSLRRLTGLEVQNMYVGPQTIPATPHLPGLFGSSTLSPHPTKGGYAVTDFLTYNCLTNDTDLYSDCLRTFWTCPHCGLHAPLTPLERIAHENTCPQAPQDGPPGAEEAALETLQKTSVLQRPYHCEACGKDFLFTPTEVLRHRKQHV

binding [2]: binds
B4: RPP25L (protein, UniProt Q8N5L8 1-163)
chain: MEHYRKAGSVELPAPSPMPQLPPDTLEMRVRDGSKIRNLLGLALGRLEGGSARHVVFSGSGRAAGKAVSCAEIVKRRVPGLHQLTKLRFLQTEDSWVPASPDTGLDPLTVRRHVPAVWVLLSRDPLDPNECGYQPPGAPPGLGSMPSSSCGPRSRRRARDTRS
